The results in this text go back to publication PMC12268154.

For at least one entry, the source does not settle the construct or the ends of the probe. At least one verdict rests on a figure or table, not on a statement of the authors.

Holding throughout (experiment): EMSA
Holding throughout (conditions): EMSA with biotin-labeled probes following Dong et al. [14], pH and temperature not stated, recombinant protein, protein details: GST (pGEX-4T-3), label: biotin

For data set [1], the system named is EsNAC098 (Eleutherococcus senticosus).
The subject of data set [2] is EsMYB4 (Eleutherococcus senticosus).
The subject of data set [3] is EsNAC047 (Eleutherococcus senticosus).
Data set [4] has as its system EsERF66 (Eleutherococcus senticosus).
The subject of data set [5] is EsWRKY40 (Eleutherococcus senticosus).
[6] abbreviates: methylated probe, DNA methylation (positions not stated).

“CCTTAGAAGACGTTCTTGAGCTAAAAAGATATTATTCTCAATTCTCCTACAAGGCACAAAAGCAAATTGAAAAGTAAAGGTAATGTCAGGCAAGG (double strand) [EsNAC098-EsbAS1 probe, methylated]”: the binding result in data set [1] (setting [6]) is “binds”.

“CCTTAGAAGACGTTCTTGAGCTAAAAAGATATTATTCTCAATTCTCCTACAAGGCACAAAAGCAAATTGAAAAGTAAAGGTAATGTCAGGCAAGG (double strand) [EsNAC098-EsbAS1 probe]”: the binding result in data set [1] was “binds”. As to “GATGCAGGAGTTGATCACTAGTGTTCAACAACTAGCTGATGAAGTACGCAAACTGAATGATGACACCAAGGGGGAGAATACAAG (double strand) [EsNAC047-EsCAS1 / EsMYB-EsCAS1 probe (same sequence)]”, the binding result in data set [2] and in data set [3] was “binds” in each case. As to “GATGCAGGAGTTGATCACTAGTGTTCAACAACTAGCTGATGAAGTACGCAAACTGAATGATGACACCAAGGGGGAGAATACAAG (double strand) [EsNAC047-EsCAS1 / EsMYB-EsCAS1 probe, methylated]”, the binding result in data set [2] (setting [6]) and in data set [3] (setting [6]) was “binds” each time. Consider “GCACCGCAAGTTATACCAACCAAGCCCAAAGAGATGTGGGGGAAGTTTGAGTGACATTCAGAAGATGTGAAAGAATAACAGAGG (double strand) [EsMYB-EsbAS1 probe, methylated]”, for which, in data set [2] (setting [6]), the binding result was “binds”. In the case of “GCACCGCAAGTTATACCAACCAAGCCCAAAGAGATGTGGGGGAAGTTTGAGTGACATTCAGAAGATGTGAAAGAATAACAGAGG (double strand) [EsMYB-EsbAS1 probe]”, in data set [2], the binding result was “binds”. With “GCTTCACAAACACAGATGCAGGAGTTGATCACTAGTGTTCAACAACTAGCTGATGAAGTACGCAAACTGAATGATGACACCAAGGGGGAG (double strand) [EsERF-EsCAS1 probe, methylated]”, the binding result in data set [4] (setting [6]) is “binds”. As to “GCTTCACAAACACAGATGCAGGAGTTGATCACTAGTGTTCAACAACTAGCTGATGAAGTACGCAAACTGAATGATGACACCAAGGGGGAG (double strand) [EsERF-EsCAS1 probe]”, the binding result in data set [4] was “binds”.

With “GGAGATGCACTTATATGTGGTGTTGCAACAGGAGATAGGTTTGAAATCCCCCATGTTAGTCAAGTTCCCAACCTTAGGGATGAGACACGGAAAGT (double strand) [EsNAC047-EsbAS1 probe, methylated]”, the binding result in data set [3] (setting [6]) is “binds”. On to “GGAGATGCACTTATATGTGGTGTTGCAACAGGAGATAGGTTTGAAATCCCCCATGTTAGTCAAGTTCCCAACCTTAGGGATGAGACACGGAAAGT (double strand) [EsNAC047-EsbAS1 probe]”, for which the binding result in data set [3] is reported as “binds”. Take “GGGGCATTTTCACTTAAATCTAGCCAAAATAGATTTTATTATCTTAAGAATGTTGGTGGAAAGGATGAAGTGGGCACACCAGTAAGCT (double strand) [EsERF-EsbAS1 probe, methylated]”: in data set [4] (setting [6]), the binding result was “binds”. For “GGGGCATTTTCACTTAAATCTAGCCAAAATAGATTTTATTATCTTAAGAATGTTGGTGGAAAGGATGAAGTGGGCACACCAGTAAGCT (double strand) [EsERF-EsbAS1 probe]”, in data set [4], the binding result is “binds”. For “GTACAGAAACAGCAACAGGCCTTATCAAACAAATCTTTGAAATGAAGGAGCTAATTGCAGCTCAAACTGAATGGGCAGACACTAGTCTCTCCCTG (double strand) [EsNAC098-EsCAS1 probe, methylated]”, the binding result in data set [1] (setting [6]) is listed as “binds”.

As to “GTACAGAAACAGCAACAGGCCTTATCAAACAAATCTTTGAAATGAAGGAGCTAATTGCAGCTCAAACTGAATGGGCAGACACTAGTCTCTCCCTG (double strand) [EsNAC098-EsCAS1 probe]”, the binding result in data set [1] is “binds”. “GTTCCTCAAATAAGAAGTCCCATCTGATAGAGTCAAAAGCTTTTTTCAAATCAATCTTCATATAGCATTTAGGAGGACCAGAGGCTCTATAG (double strand) [EsWRKY-EsbAS1 probe, methylated]”: the binding result in data set [5] (setting [6]) is reported as “binds”. Regarding “GTTCCTCAAATAAGAAGTCCCATCTGATAGAGTCAAAAGCTTTTTTCAAATCAATCTTCATATAGCATTTAGGAGGACCAGAGGCTCTATAG (double strand) [EsWRKY-EsbAS1 probe]”, in data set [5], the binding result was “binds”.

On to “TGGTCCATCCCAAGCCTGGCAGGCTTTGACCAGGCCAGGCCGGGCCAGACTCAAAATTTATAAAGGCCGGGCCAAGCTGAATA (double strand) [EsWRKY-EsCAS1 probe, methylated]”, for which, in data set [5] (setting [6]), the binding result is “binds”. As for “TGGTCCATCCCAAGCCTGGCAGGCTTTGACCAGGCCAGGCCGGGCCAGACTCAAAATTTATAAAGGCCGGGCCAAGCTGAATA (double strand) [EsWRKY-EsCAS1 probe]”, in data set [5], the binding result is “binds”.
